Values quoted from earlier work in US20080139483A1, “DRUG COMBINATION FOR HYPERTENSIVE DISORDERS” (priority 2006, published 2008).
Entries after “also recorded” stand apart in the source; their conditions may differ. At least one compound was matched to its structure with a doubt left.

System: patients with PAH

Compound: COC(c1ccccc1)(c1ccccc1)[C@H](Oc1nc(C)cc(C)n1)C(=O)O [ambrisentan]
- mean 6MWD, mean increase from baseline (all patients after 12 weeks of ambrisentan treatment): 36 meters
- BDI and WHO functional class (result in words) (patients with PAH): clinically meaningful improvements
- exercise capacity measured by 6MWD (result in words) (patients with PAH): significant and durable benefit on exercise capacity; also recorded: significant improvements; also recorded: increase in exercise capacity; also recorded: statistically significant and clinically meaningful increase
- one-year survival rate (patients with idiopathic PAH, NIH registry predicted survival 74%): 92%
